The target of test [1] is T1, Tim17^Linker-2xStrep (S. cerevisiae) (UniProt P39515).
T1 sequence: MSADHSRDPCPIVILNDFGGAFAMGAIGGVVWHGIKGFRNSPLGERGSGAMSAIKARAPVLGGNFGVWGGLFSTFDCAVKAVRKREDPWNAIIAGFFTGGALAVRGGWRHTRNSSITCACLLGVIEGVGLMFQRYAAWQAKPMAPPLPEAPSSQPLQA
The experiment in a line: cross-linking; mitochondria heat-shocked at 37 °C for 10 min, import at 25 °C, chemical crosslinking (crosslinker not named); b2(110)∆19-DHFR^# products analysed directly, Cox5a–sfGFP products purified with a GFP nanobody; SDS–PAGE and autoradiography.

A further test concerns the target T2, Tim17 (S. cerevisiae) (UniProt P39515).
T2 sequence: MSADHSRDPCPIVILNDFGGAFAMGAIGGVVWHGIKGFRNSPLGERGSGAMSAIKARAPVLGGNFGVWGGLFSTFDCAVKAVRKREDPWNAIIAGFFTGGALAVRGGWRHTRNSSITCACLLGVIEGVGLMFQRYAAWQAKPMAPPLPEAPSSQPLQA
The description is as above.

Test [2] concerns the target T3, Tim17^N64C (in the SCF background) (S. cerevisiae) (UniProt P39515).
T3 sequence: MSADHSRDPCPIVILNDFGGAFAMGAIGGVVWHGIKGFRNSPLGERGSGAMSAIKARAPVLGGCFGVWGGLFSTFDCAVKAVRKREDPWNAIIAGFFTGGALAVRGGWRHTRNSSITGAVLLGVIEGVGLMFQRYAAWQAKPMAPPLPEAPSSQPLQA
The experiment in a line: cross-linking; in organello: 35S-labelled precursor arrested at TOM–TIM23 import sites of isolated yeast mitochondria (5 µM MTX for the DHFR fusions), then 1 mM MBS (cysteine- and amino-reactive, 7.3 Å) 30 min on ice in SEM buffer; SDS–PAGE and autoradiography.

The target of test [3] is T4, Tim17^K36C (in the SCF background) (S. cerevisiae) (UniProt P39515).
T4 sequence: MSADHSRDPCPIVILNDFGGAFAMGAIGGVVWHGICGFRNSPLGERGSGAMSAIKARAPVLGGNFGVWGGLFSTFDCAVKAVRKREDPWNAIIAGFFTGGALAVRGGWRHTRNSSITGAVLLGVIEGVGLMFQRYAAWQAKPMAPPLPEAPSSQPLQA
The test is described as above.

Test [4] has as its target T5, Tim23 (S. cerevisiae) (UniProt P32897).
T5 sequence: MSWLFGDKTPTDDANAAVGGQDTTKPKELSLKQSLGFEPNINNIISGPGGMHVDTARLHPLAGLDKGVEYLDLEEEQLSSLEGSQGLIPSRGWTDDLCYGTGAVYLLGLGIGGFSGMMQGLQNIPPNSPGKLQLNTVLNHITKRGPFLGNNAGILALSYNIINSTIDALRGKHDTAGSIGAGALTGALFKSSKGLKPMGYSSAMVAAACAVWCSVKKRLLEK
Description: cross-linking; disulfide bond formation with 4-DPS after arrest of recombinant Jac1–sfGFP; TOM–TIM23 supercomplexes isolated with a GFP nanobody, eluate on non-reducing SDS–PAGE.

Test [5] addresses T6, Jac1–sfGFP (UniProt P53193).
T6 sequence: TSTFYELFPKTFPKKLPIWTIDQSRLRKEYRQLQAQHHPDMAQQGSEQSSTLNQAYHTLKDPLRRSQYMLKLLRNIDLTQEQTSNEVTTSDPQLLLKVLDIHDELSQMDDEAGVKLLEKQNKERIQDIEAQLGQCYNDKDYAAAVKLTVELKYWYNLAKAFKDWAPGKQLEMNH
Description: pull-down; recombinant Jac1–sfGFP (2.5 µM) arrested in isolated mitochondria, oxidised with 4-DPS, solubilised in 1% digitonin, captured on GFP nanobody magnetic agarose; SDS–PAGE and immunodecoration; only the target purified.

Test [6] addresses T5, Tim23 (S. cerevisiae). The experiment in a line: cross-linking; disulfide bond formation in organello: isolated mitochondria untreated or with 0.2 mM 4-DPS 10 min on ice (lost with DTT); non-reducing SDS–PAGE, immunodecoration against Tim17 and Tim23.
Test [7] deals with T6, Jac1–sfGFP. Description: pull-down; tandem purification after arrest of Jac1–sfGFP, 1% digitonin: first Strep-Tactin XT (Tim17^2xStrep) or Ni-NTA (^HisSumo*Tim23), then GFP nanobody; SDS–PAGE and immunodecoration; only the target purified.
Test [8] deals with T7, Tim17^Linker-2xStrep (S. cerevisiae), P39515.
T7 chain: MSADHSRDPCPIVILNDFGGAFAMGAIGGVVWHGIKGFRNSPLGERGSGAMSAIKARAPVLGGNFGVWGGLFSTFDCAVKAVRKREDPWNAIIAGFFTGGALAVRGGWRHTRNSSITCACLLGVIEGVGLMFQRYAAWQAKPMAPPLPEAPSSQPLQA
The experiment in a line: pull-down; mitochondria co-expressing tagged and non-tagged copies of the same subunit, with arrested Jac1–sfGFP; first elution (Strep-Tactin XT or Ni-NTA) and second elution (GFP nanobody) compared by immunodecoration. As to conditions: remark: other sources report otherwise.

For test [9], the target named is T8, ^HisSUMOstarTim23 (S. cerevisiae), P32897.
T8 chain: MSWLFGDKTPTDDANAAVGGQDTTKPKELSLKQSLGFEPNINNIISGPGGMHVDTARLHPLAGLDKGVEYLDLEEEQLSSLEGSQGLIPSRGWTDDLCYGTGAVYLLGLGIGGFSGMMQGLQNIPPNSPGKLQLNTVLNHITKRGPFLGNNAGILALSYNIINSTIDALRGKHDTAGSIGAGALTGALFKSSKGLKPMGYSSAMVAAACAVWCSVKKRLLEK
The description is as above. The following applies: remark: other sources report otherwise.

No constants are given. Whether binding was seen depends on the method and setting. In cells and extracts the contact can be indirect. Some binding calls cover weakened binding; strength is not graded here. For part of these data: Where a sequence is shown, tags or fusion partners need not be part of it.

Binding data for seven molecules are collected here from PMC10511324.

B1: Cox5a(1–130)–sfGFP (domain or fragment, UniProt P00424 1-130)
chain: MLRNTFTRAGGLSRITSVRFAQTHALSNAAVMDLQSRWENMPSTEQQDIVSKLSERQKLPWAQLTEPEKQAVWYISYGEWGPRRPVLNKGDSSFIAKGVAAGLLFSVGLFAVVRMAGGQDAKTMNKEWQL
modifications: [35S]methionine-labelled
On to B1, for which the binding result (in test [1]; with Tim17 (S. cerevisiae); in test [2]; in test [3]) was “binds” throughout.

B2: Tim17^N16C (in the SCF background) (protein, UniProt P39515 1-158)
chain: MSADHSRDPCPIVILCDFGGAFAMGAIGGVVWHGIKGFRNSPLGERGSGAMSAIKARAPVLGGNFGVWGGLFSTFDCAVKAVRKREDPWNAIIAGFFTGGALAVRGGWRHTRNSSITGAVLLGVIEGVGLMFQRYAAWQAKPMAPPLPEAPSSQPLQA
B2: the binding result with Tim23 (S. cerevisiae) [4], with Jac1–sfGFP [5] and in the test with Tim23 (S. cerevisiae) [6] was “binds” throughout.

B3: Tim17^Linker-2xStrep (protein, UniProt P39515 1-158)
chain: MSADHSRDPCPIVILNDFGGAFAMGAIGGVVWHGIKGFRNSPLGERGSGAMSAIKARAPVLGGNFGVWGGLFSTFDCAVKAVRKREDPWNAIIAGFFTGGALAVRGGWRHTRNSSITCACLLGVIEGVGLMFQRYAAWQAKPMAPPLPEAPSSQPLQA
On to B3, for which the binding result in the test with Jac1–sfGFP [7] is reported as “binds”.

B4: Tim17, P39515 1-158 (protein)
chain: MSADHSRDPCPIVILNDFGGAFAMGAIGGVVWHGIKGFRNSPLGERGSGAMSAIKARAPVLGGNFGVWGGLFSTFDCAVKAVRKREDPWNAIIAGFFTGGALAVRGGWRHTRNSSITCACLLGVIEGVGLMFQRYAAWQAKPMAPPLPEAPSSQPLQA
Take B4: the binding entry in [8] was “no binding”.

B5: Tim23 (protein, UniProt P32897 1-222)
chain: MSWLFGDKTPTDDANAAVGGQDTTKPKELSLKQSLGFEPNINNIISGPGGMHVDTARLHPLAGLDKGVEYLDLEEEQLSSLEGSQGLIPSRGWTDDLCYGTGAVYLLGLGIGGFSGMMQGLQNIPPNSPGKLQLNTVLNHITKRGPFLGNNAGILALSYNIINSTIDALRGKHDTAGSIGAGALTGALFKSSKGLKPMGYSSAMVAAACAVWCSVKKRLLEK
Take B5: the binding result with Jac1–sfGFP [5] is recorded as “binds”.

B6: Tim23, P32897 1-222 (protein)
chain: MSWLFGDKTPTDDANAAVGGQDTTKPKELSLKQSLGFEPNINNIISGPGGMHVDTARLHPLAGLDKGVEYLDLEEEQLSSLEGSQGLIPSRGWTDDLCYGTGAVYLLGLGIGGFSGMMQGLQNIPPNSPGKLQLNTVLNHITKRGPFLGNNAGILALSYNIINSTIDALRGKHDTAGSIGAGALTGALFKSSKGLKPMGYSSAMVAAACAVWCSVKKRLLEK
On to B6, for which, in test [9], the binding entry is “no binding”.

B7: ^HisSUMOstarTim23 (protein, UniProt P32897 1-222)
chain: MSWLFGDKTPTDDANAAVGGQDTTKPKELSLKQSLGFEPNINNIISGPGGMHVDTARLHPLAGLDKGVEYLDLEEEQLSSLEGSQGLIPSRGWTDDLCYGTGAVYLLGLGIGGFSGMMQGLQNIPPNSPGKLQLNTVLNHITKRGPFLGNNAGILALSYNIINSTIDALRGKHDTAGSIGAGALTGALFKSSKGLKPMGYSSAMVAAACAVWCSVKKRLLEK
Consider B7, for which, in the test with Jac1–sfGFP [7], the binding result is given as “binds”.
